The values that follow come from the supplement of paper PMC11348887.

Counter-ions that a name gives are not always drawn. The list shows a part of the results. Small differences around the control level are noise.

What all share (conditions): 5 µM; treatment: days 7-14 after plating, readout day 21
Experiment [1] relates to hPSC-derived cortical neurons (WA09). In words: nucleus area z-score vs screen plate; higher = larger nuclei (more mature).
For experiment [2] the test system is unchanged. In words: total neurite length per nucleus (MAP2) z-score; higher = more neurite growth.
Experiment [3] has the same test system. In words: nucleus roundness z-score vs screen plate; higher = rounder nuclei (more mature).
Experiment [4] shares this test system. In words: KCl-induced FOS+/EGR-1+ double-positive nuclei fraction z-score (KCl minus unstimulated); higher = stronger activity-induced IEG response.

In experiment [1], `C=C(c1ccc(C(=O)O)cc1)c1cc2c(cc1C)C(C)(C)CCC2(C)C` [Bexarotene] gave a nucleus area z-score of 1.13. Besides, the “total neurite length per nucleus (z-score)” value in experiment [2] is -0.945. In experiment [3], the nucleus roundness z-score is -1.95. The “KCl-induced FOS+/EGR-1+ double-positive nuclei fraction z-score” value in experiment [4] was found to be 0.122.

In experiment [1], `Cc1ccc(NC(=O)c2cccc(N(C)C)c2)cc1NC(=O)c1ccc(O)cc1` returned a nucleus area z-score of 1.53. Moreover, in experiment [2], the “total neurite length per nucleus (z-score)” value stood at 2.55. The same molecule displayed a nucleus roundness z-score in experiment [3] of 2.53. In experiment [4], the “KCl-induced FOS+/EGR-1+ double-positive nuclei fraction z-score” value was found to be 1.64.

For the molecule `Nc1ccc(C(=O)O)c(O)c1` [Sodium 4-Aminosalicylate], the nucleus area z-score in experiment [1] came out at 0.0331. Besides, the “total neurite length per nucleus (z-score)” value in experiment [2] was -0.0372. Further, in experiment [3], the nucleus roundness z-score is -0.316. Moreover, the “KCl-induced FOS+/EGR-1+ double-positive nuclei fraction z-score” value in experiment [4] is -0.76.

In experiment [1], `CC(C)(S)[C@@H](N)C(=O)O` [Penicillamine] showed a nucleus area z-score of -0.0897. The “total neurite length per nucleus (z-score)” value in experiment [2] turned out to be 0.349. In experiment [3], the nucleus roundness z-score is 0.332. For the same molecule, in experiment [4], the “KCl-induced FOS+/EGR-1+ double-positive nuclei fraction z-score” value stood at 2.71.

`O=NO` [Sodium Nitrite] yielded a nucleus area z-score in experiment [1] of 0.621. For the same molecule, the “total neurite length per nucleus (z-score)” value in experiment [2] was -0.5. The nucleus roundness z-score in experiment [3] was -0.297. The “KCl-induced FOS+/EGR-1+ double-positive nuclei fraction z-score” value in experiment [4] turned out to be 0.0838.

Consider `NC(=O)C(c1ccccc1)(c1ccccc1)[C@@H]1CCN(CCc2ccc3c(c2)CCO3)C1` [Darifenacin HBr], for which the nucleus area z-score in experiment [1] is 0.00139. In addition, in experiment [2], the “total neurite length per nucleus (z-score)” value was -1.8. In experiment [3], this molecule had a nucleus roundness z-score of -1.92. Further, the “KCl-induced FOS+/EGR-1+ double-positive nuclei fraction z-score” value in experiment [4] is -0.234.

Take `NCCc1ccc(O)c(O)c1` [Dopamine HCl]: in experiment [1], the nucleus area z-score was determined as 0.075. The “total neurite length per nucleus (z-score)” value in experiment [2] came out at 0.462. The nucleus roundness z-score in experiment [3] was found to be 0.81. In experiment [4], the “KCl-induced FOS+/EGR-1+ double-positive nuclei fraction z-score” value amounted to 0.0686.

`Oc1c(Cl)cc(Cl)cc1Sc1cc(Cl)cc(Cl)c1O` [Bithionol] registered a nucleus area z-score in experiment [1] of -0.153. For the same molecule, the “total neurite length per nucleus (z-score)” value in experiment [2] was 0.0648. For the same molecule, the nucleus roundness z-score in experiment [3] was -0.00542. In addition, the “KCl-induced FOS+/EGR-1+ double-positive nuclei fraction z-score” value in experiment [4] is 0.945.

With `O=C(O)Cc1ccccc1Nc1c(Cl)cccc1Cl` [Diclofenac Potassium], the nucleus area z-score in experiment [1] came out at 0.948. Besides, in experiment [2], the “total neurite length per nucleus (z-score)” value is -0.669. The nucleus roundness z-score in experiment [3] was -0.224. In experiment [4], the “KCl-induced FOS+/EGR-1+ double-positive nuclei fraction z-score” value is -0.642.

`CCOC(=O)CCC(=O)O[C@H]1[C@H](O[C@@H]2[C@@H](C)[C@H](O[C@H]3C[C@@](C)(OC)[C@@H](O)[C@H](C)O3)[C@@H](C)C(=O)O[C@H](CC)[C@@](C)(O)[C@H](O)[C@@H](C)C(=O)[C@H](C)C[C@@]2(C)O)O[C@H](C)C[C@@H]1N(C)C` [Erythromycin Ethylsuccinate] returned a nucleus area z-score in experiment [1] of 0.697. Besides, the “total neurite length per nucleus (z-score)” value in experiment [2] was -0.752. Moreover, in experiment [3], the nucleus roundness z-score is -1.11. Further, the “KCl-induced FOS+/EGR-1+ double-positive nuclei fraction z-score” value in experiment [4] is -0.524.

In experiment [1], `Clc1cccc(CN=C2Nc3ccccc3NC23CCNCC3)c1` [Liproxstatin-1] returned a nucleus area z-score of 0.0877. Further, in experiment [2], the “total neurite length per nucleus (z-score)” value came to 0.00609. For the same molecule, the nucleus roundness z-score in experiment [3] was found to be 0.507. Also, in experiment [4], the “KCl-induced FOS+/EGR-1+ double-positive nuclei fraction z-score” value amounted to 0.106.

The molecule `Cc1cc(C(C)Nc2ccccc2)c2nc(N3CCOCC3)cc(=O)n2c1` (configuration not stated) showed a nucleus area z-score in experiment [1] of 2.04. For the same molecule, in experiment [2], the “total neurite length per nucleus (z-score)” value amounted to 1.31. The nucleus roundness z-score in experiment [3] was 1.07. For the same molecule, the “KCl-induced FOS+/EGR-1+ double-positive nuclei fraction z-score” value in experiment [4] stood at 0.495.

In experiment [1], `O=C(c1ccc(Cl)cc1Cl)n1nnc2ccccc21` showed a nucleus area z-score of 0.33. The “total neurite length per nucleus (z-score)” value in experiment [2] was found to be 1.1. For the same molecule, the nucleus roundness z-score in experiment [3] is 1.37. The “KCl-induced FOS+/EGR-1+ double-positive nuclei fraction z-score” value in experiment [4] is 0.348.

The molecule `Nc1nc(N)c(N=O)c(OCC2CCCCC2)n1` gave a nucleus area z-score in experiment [1] of 1.46. In experiment [2], the “total neurite length per nucleus (z-score)” value is -0.401. The nucleus roundness z-score in experiment [3] is -0.758. Moreover, the “KCl-induced FOS+/EGR-1+ double-positive nuclei fraction z-score” value in experiment [4] worked out at 0.498.

In experiment [1], `CO[C@H]1C[C@@H]2CC[C@@H](C)[C@@](O)(O2)C(=O)C(=O)N2CCCC[C@H]2C(=O)O[C@H]([C@H](C)C[C@@H]2CC[C@@H](OC(=O)C(C)(CO)CO)[C@H](OC)C2)CC(=O)[C@H](C)/C=C(\C)[C@@H](O)[C@@H](OC)C(=O)[C@H](C)C[C@H](C)/C=C/C=C/C=C/1C` showed a nucleus area z-score of -0.347. Moreover, in experiment [2], the “total neurite length per nucleus (z-score)” value was 1.04. For the same molecule, the nucleus roundness z-score in experiment [3] was 0.801. Further, in experiment [4], the “KCl-induced FOS+/EGR-1+ double-positive nuclei fraction z-score” value stood at 0.819.

Regarding `Fc1ccc(Cl)cc1-c1nc(Nc2ccncc2)c2nccnc2n1`, the nucleus area z-score in experiment [1] was 3.5. For the same molecule, the “total neurite length per nucleus (z-score)” value in experiment [2] is -1.33. The molecule also displayed a nucleus roundness z-score in experiment [3] of -3.49. Further, the “KCl-induced FOS+/EGR-1+ double-positive nuclei fraction z-score” value in experiment [4] is -0.163.

As for `CCC(=O)NS(=O)(=O)c1ccc(-c2c(-c3ccccc3)noc2C)cc1` [Parecoxib], in experiment [1], the nucleus area z-score was -0.441. Moreover, the “total neurite length per nucleus (z-score)” value in experiment [2] is -0.0383. In experiment [3], this molecule showed a nucleus roundness z-score of -0.481. The “KCl-induced FOS+/EGR-1+ double-positive nuclei fraction z-score” value in experiment [4] was 0.0864.

In experiment [1], `C[N+](C)(CCOc1ccccc1)Cc1ccccc1.O=C([O-])c1cc2ccccc2cc1O` [Bephenium Hydroxynaphthoate] yielded a nucleus area z-score of 0.545. Further, the “total neurite length per nucleus (z-score)” value in experiment [2] was -0.0163. In experiment [3], this molecule registered a nucleus roundness z-score of 0.505. In experiment [4], the “KCl-induced FOS+/EGR-1+ double-positive nuclei fraction z-score” value worked out at 0.0297.

Take `Oc1cc(O)cc(/C=C/c2ccc(O)c(O)c2)c1` [Piceatannol]: the nucleus area z-score in experiment [1] was -0.134. Further, in experiment [2], the “total neurite length per nucleus (z-score)” value was -0.435. The molecule further had a nucleus roundness z-score in experiment [3] of 0.473. In experiment [4], the “KCl-induced FOS+/EGR-1+ double-positive nuclei fraction z-score” value is -0.618.

With `CC1(C)O[C@@H]2C[C@H]3[C@@H]4CCC5=CC(=O)C=C[C@]5(C)[C@@]4(F)[C@@H](O)C[C@]3(C)[C@]2(C(=O)CO)O1` [Triamcinolone Acetonide], in experiment [1], the nucleus area z-score is -0.538. In addition, in experiment [2], the “total neurite length per nucleus (z-score)” value came to 0.178. Also, the nucleus roundness z-score in experiment [3] is -0.139. In experiment [4], the “KCl-induced FOS+/EGR-1+ double-positive nuclei fraction z-score” value is -0.0449.

In experiment [1], `CNC(=O)[C@@H](c1ccccc1)N1CCc2cc(OC)c(OC)cc2[C@@H]1CCc1ccc(C(F)(F)F)cc1` [Almorexant HCl] had a nucleus area z-score of -2.12. Also, the “total neurite length per nucleus (z-score)” value in experiment [2] is -1.37. Also, the nucleus roundness z-score in experiment [3] was -0.23. In addition, in experiment [4], the “KCl-induced FOS+/EGR-1+ double-positive nuclei fraction z-score” value was found to be 0.0193.

In experiment [1], `Cc1cc(C(=O)NOCCO)c(Nc2ccc(I)cc2F)n(C)c1=O` displayed a nucleus area z-score of -1.17. Besides, the “total neurite length per nucleus (z-score)” value in experiment [2] was 0.336. The same molecule came in with a nucleus roundness z-score in experiment [3] of -0.045. Further, in experiment [4], the “KCl-induced FOS+/EGR-1+ double-positive nuclei fraction z-score” value is -0.0709.

Regarding `O=C1NC(=O)/C(=C/c2ccc(-c3ccc(F)cc3O)o2)S1`, in experiment [1], the nucleus area z-score came out at 1.53. Also, the “total neurite length per nucleus (z-score)” value in experiment [2] amounted to 0.254. Moreover, the nucleus roundness z-score in experiment [3] was found to be 0.483. Further, the “KCl-induced FOS+/EGR-1+ double-positive nuclei fraction z-score” value in experiment [4] was 0.0304.
